{"source": "PubChem BioAssay AID1159584 (Peter MacCallum Cancer Centre, 2016)", "test": "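Genes whose loss is lethal only together with E-cadherin loss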 (primary screen)", "cells": "human MCF10A breast epithelial cells, parental and CDH1-null", "reagent": "siRNA against human genes", "read-out": "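Cell viability by CellTiter-Glo ATP luminescence, each line scaled to the mean of mock wells across plates, then CDH1-null over parental ratio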", "scale": "CDH1-null / parental viability ratio: higher = CDH1-null cells survive relatively better than parental", "note": "This is an unselected part of about 18,000 reagents tested. Further read-outs or replicates are left out here. Not stated in the record: the amount of reagent, the time to read-out."}
{"gene symbol": "VPS26B (VPS26 retromer complex component B)", "PubChem SID": "SID152154325", "CDH1-null / parental viability ratio": 0.9}
{"gene symbol": "EPOR (erythropoietin receptor)", "PubChem SID": "SID135621465", "CDH1-null / parental viability ratio": 0.97}
{"gene symbol": "MPZL2 (myelin protein zero like 2)", "PubChem SID": "SID134321310", "CDH1-null / parental viability ratio": 0.93}
{"gene symbol": "PBDC1 (polysaccharide biosynthesis domain containing 1)", "PubChem SID": "SID135623627", "CDH1-null / parental viability ratio": 0.98}
{"gene symbol": "SERPINE2 (serpin family E member 2)", "PubChem SID": "SID134316996", "CDH1-null / parental viability ratio": 0.94}
{"gene symbol": "PIK3R2 (phosphoinositide-3-kinase regulatory subunit 2)", "PubChem SID": "SID135620607", "CDH1-null / parental viability ratio": 1.02}
{"gene symbol": "KIF1C (kinesin family member 1C)", "PubChem SID": "SID152153509", "CDH1-null / parental viability ratio": 0.83}
{"gene symbol": "UBE2E1 (ubiquitin conjugating enzyme E2 E1)", "PubChem SID": "SID134313699", "CDH1-null / parental viability ratio": 1.14}
{"gene symbol": "AHCY (adenosylhomocysteinase)", "PubChem SID": "SID134314330", "CDH1-null / parental viability ratio": 1.1}
{"gene symbol": "CELA3B (chymotrypsin like elastase 3B)", "PubChem SID": "SID152154536", "CDH1-null / parental viability ratio": 0.74}
{"gene symbol": "FAM171B (family with sequence similarity 171 member B)", "PubChem SID": "SID152150195", "CDH1-null / parental viability ratio": 1.14}
{"gene symbol": "ANP32A (acidic nuclear phosphoprotein 32 family member A)", "PubChem SID": "SID134320072", "CDH1-null / parental viability ratio": 0.91}
{"gene symbol": "NRIP3 (nuclear receptor interacting protein 3)", "PubChem SID": "SID134318070", "CDH1-null / parental viability ratio": 1.05}
{"gene symbol": "GABRE (gamma-aminobutyric acid type A receptor subunit epsilon)", "PubChem SID": "SID135621155", "CDH1-null / parental viability ratio": 1.53}
{"gene symbol": "NFATC4 (nuclear factor of activated T cells 4)", "PubChem SID": "SID152147491", "CDH1-null / parental viability ratio": 1.15}
{"gene symbol": "ZNF691 (zinc finger protein 691)", "PubChem SID": "SID135624089", "CDH1-null / parental viability ratio": 0.94}
{"gene symbol": "NUP160 (nucleoporin 160)", "PubChem SID": "SID152150399", "CDH1-null / parental viability ratio": 1.11}
{"gene symbol": "POLR2E (RNA polymerase II, I and III subunit E)", "PubChem SID": "SID134310603", "CDH1-null / parental viability ratio": 1.07}
{"gene symbol": "CYP2A6 (cytochrome P450 family 2 subfamily A member 6)", "PubChem SID": "SID135621645", "CDH1-null / parental viability ratio": 0.92}
{"gene symbol": "CCDC144NL (CCDC144A N-terminal like (pseudogene))", "PubChem SID": "SID135624366", "CDH1-null / parental viability ratio": 0.91}
{"gene symbol": "SBNO2 (strawberry notch homolog 2)", "PubChem SID": "SID135620878", "CDH1-null / parental viability ratio": 1}
{"gene symbol": "TAFA2 (TAFA chemokine like family member 2)", "PubChem SID": "SID152152048", "CDH1-null / parental viability ratio": 1.34}
{"gene symbol": "LCE3A (late cornified envelope 3A)", "PubChem SID": "SID134322847", "CDH1-null / parental viability ratio": 1.5}
{"gene symbol": "KLB (klotho beta)", "PubChem SID": "SID134321847", "CDH1-null / parental viability ratio": 0.93}
{"gene symbol": "SS18 (SS18 subunit of BAF chromatin remodeling complex)", "PubChem SID": "SID152153126", "CDH1-null / parental viability ratio": 0.87}
{"gene symbol": "IL17A (interleukin 17A)", "PubChem SID": "SID134312872", "CDH1-null / parental viability ratio": 1.35}
{"gene symbol": "SLC3A1", "PubChem SID": "SID134312621", "CDH1-null / parental viability ratio": 0.77}
{"gene symbol": "ZNF512 (zinc finger protein 512)", "PubChem SID": "SID135621312", "CDH1-null / parental viability ratio": 1.1}
{"gene symbol": "PNPLA6 (patatin like domain 6, lysophospholipase)", "PubChem SID": "SID152147103", "CDH1-null / parental viability ratio": 1.2}
{"gene symbol": "AARS2 (alanyl-tRNA synthetase 2, mitochondrial)", "PubChem SID": "SID152151802", "CDH1-null / parental viability ratio": 1.05}
{"gene symbol": "SRBD1 (S1 RNA binding domain 1)", "PubChem SID": "SID134322026", "CDH1-null / parental viability ratio": 0.87}
{"gene symbol": "RBM41 (RNA binding motif protein 41)", "PubChem SID": "SID134324608", "CDH1-null / parental viability ratio": 1}
{"gene symbol": "LAMTOR4 (late endosomal/lysosomal adaptor, MAPK and MTOR activator 4)", "PubChem SID": "SID152156293", "CDH1-null / parental viability ratio": 1.25}
{"gene symbol": "PELI1 (pellino E3 ubiquitin protein ligase 1)", "PubChem SID": "SID134318021", "CDH1-null / parental viability ratio": 1.09}
{"gene symbol": "DHRS11 (dehydrogenase/reductase 11)", "PubChem SID": "SID152153751", "CDH1-null / parental viability ratio": 1.34}

5 entries from above, set out differently:
gene symbol | PubChem SID | CDH1-null / parental viability ratio
POLR2E (RNA polymerase II, I and III subunit E) | SID134310603 | 1.07
CYP2A6 (cytochrome P450 family 2 subfamily A member 6) | SID135621645 | 0.92
CCDC144NL (CCDC144A N-terminal like (pseudogene)) | SID135624366 | 0.91
SBNO2 (strawberry notch homolog 2) | SID135620878 | 1
TAFA2 (TAFA chemokine like family member 2) | SID152152048 | 1.34
